Measurements: publication PMC3791834
Results are given in words; binding and its absence hold for the method and conditions named. Binding seen in cells or lysates may run through a third protein. Some binding calls cover weakened binding; strength is not graded here.

Chains of the proteins cited; added tags and fusions are not shown.
UniProt O95819: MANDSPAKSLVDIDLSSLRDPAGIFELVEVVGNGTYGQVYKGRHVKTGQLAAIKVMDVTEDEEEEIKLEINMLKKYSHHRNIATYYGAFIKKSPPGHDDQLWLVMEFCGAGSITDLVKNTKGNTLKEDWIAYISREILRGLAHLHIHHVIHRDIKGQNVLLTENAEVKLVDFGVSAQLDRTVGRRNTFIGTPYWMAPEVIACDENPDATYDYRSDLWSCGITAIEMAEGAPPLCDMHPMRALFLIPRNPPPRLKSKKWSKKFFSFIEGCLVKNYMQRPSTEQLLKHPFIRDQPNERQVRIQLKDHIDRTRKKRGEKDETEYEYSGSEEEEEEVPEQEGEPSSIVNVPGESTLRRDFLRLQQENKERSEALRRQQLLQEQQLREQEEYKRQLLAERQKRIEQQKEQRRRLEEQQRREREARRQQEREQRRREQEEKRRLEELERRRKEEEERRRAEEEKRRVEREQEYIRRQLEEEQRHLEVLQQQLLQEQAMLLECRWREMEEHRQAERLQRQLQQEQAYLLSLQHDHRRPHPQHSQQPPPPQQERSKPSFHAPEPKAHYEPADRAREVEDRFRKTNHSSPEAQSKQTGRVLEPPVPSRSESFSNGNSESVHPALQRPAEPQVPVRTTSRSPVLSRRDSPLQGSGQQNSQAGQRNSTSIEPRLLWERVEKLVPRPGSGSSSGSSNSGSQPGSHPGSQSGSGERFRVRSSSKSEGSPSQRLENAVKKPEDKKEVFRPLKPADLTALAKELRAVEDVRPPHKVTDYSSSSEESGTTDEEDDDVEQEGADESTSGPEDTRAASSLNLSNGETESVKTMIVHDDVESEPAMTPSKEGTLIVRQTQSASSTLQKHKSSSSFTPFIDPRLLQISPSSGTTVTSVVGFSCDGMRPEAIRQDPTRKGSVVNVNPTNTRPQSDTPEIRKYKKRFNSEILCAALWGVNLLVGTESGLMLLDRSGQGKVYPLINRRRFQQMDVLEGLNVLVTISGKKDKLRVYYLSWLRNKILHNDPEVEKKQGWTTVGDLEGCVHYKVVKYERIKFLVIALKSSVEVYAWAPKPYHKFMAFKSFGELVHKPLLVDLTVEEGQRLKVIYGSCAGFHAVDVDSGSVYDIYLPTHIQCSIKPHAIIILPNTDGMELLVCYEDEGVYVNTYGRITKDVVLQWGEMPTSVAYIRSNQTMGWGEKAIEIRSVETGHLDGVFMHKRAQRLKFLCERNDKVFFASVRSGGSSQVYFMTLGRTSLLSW
UniProt Q14289: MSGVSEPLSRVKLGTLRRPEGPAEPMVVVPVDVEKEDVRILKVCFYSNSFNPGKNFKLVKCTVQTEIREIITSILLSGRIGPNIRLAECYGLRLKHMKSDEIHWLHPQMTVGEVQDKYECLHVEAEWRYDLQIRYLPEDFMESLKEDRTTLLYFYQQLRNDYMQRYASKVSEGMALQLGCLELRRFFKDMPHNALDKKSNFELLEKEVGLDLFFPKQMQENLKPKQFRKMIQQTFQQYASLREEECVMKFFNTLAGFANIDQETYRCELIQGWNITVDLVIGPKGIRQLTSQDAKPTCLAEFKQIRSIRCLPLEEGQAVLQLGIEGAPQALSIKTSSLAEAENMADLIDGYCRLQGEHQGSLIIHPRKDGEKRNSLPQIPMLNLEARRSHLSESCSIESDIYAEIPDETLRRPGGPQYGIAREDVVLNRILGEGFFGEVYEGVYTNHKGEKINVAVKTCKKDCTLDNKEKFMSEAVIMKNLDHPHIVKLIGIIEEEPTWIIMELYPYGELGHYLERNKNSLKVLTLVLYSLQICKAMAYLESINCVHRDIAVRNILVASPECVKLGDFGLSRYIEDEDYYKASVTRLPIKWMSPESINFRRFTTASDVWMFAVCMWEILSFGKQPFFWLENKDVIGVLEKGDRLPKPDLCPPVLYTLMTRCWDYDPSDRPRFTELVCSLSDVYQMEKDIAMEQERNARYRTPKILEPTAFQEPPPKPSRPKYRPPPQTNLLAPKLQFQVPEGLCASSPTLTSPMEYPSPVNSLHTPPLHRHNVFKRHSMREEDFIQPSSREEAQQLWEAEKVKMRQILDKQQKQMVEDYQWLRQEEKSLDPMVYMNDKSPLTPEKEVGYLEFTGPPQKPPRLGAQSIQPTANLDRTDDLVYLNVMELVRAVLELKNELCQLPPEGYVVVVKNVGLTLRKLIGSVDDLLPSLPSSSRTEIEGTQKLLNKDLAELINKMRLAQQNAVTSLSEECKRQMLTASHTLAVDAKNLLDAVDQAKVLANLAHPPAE

Biological target: endogenous MAP4K4 of SF767 glioma cells (human (endogenous in SF767)) (UniProt O95819)
Experiment: co-IP; endogenous proteins: SF767 glioma cells lysed and immunoprecipitated with anti-MAP4K4 antibody, immunoblot

“endogenous Pyk2 of SF767 glioma cells (from UniProt Q14289 1-1009)” was tested, and the binding was “binds”.
